{"source": "patent US10813981B2", "about": "“Saposin B binds the lipofuscin bisretinoid A2E and prevents its enzymatic and photo degradation” (Syracuse University, priority 2017, dated 2020)", "key": {"[1]": {"target": "T1, pre-formed [SapB-Ligand]complex (Homo sapiens, UniProt P07602)", "T1 construct": "is a product of the post-translational cleavage of prosaposin, along with SapA, SapC, and SapD; made in house; host or cells: E. coli", "T1 sequence (P07602 195-273 limits assumed)": "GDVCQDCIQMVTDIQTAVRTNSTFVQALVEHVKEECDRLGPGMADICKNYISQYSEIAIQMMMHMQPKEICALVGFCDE", "experiment": "Competition / order of addition fluorescence binding with pre-formed SapB complexes", "settings": "pH 5.5", "description": "We have reported in an earlier study the binding properties of SapB to CoQ10 (a bone fide substrate). To determine whether it binds to the same binding site on the protein or displaces A2E from SapB, a series of fluorescence titration experiments in the presence and absence of CoQ10 were performed.\nAn 800 μL, 20 μM SapB to 10 μM CoQ10 complex was made in pH 5.5 50 mM phosphate buffer. The complex was formed at room temperature in a 1 mL glass vial with gentle stirring for 10 minutes. The entire solution was then transferred to a clear fluorescence cuvette. Fluorescence experiments were performed under emission conditions on a Cary Eclipse Fluorescence Spectrophotometer, with an excitation wavelength of 444 nm, emission wavelength range of 500-800 nm, excitation slit width set to 10 nm, and emission slit width set to 10 nm. […] Analysis of A2E binding the SapB-CoQ10 complex was performed by tracking fluorescence intensity at A2E's peak emission wavelength of 602 nm and plotting it against the concentration of A2E added per each injection.\nA SapB-ATO complex was formed by adding 20 μL of the experimental stock to 1 mL of the SapB experimental stock for a final volume of 1020 μL in a 1.5 mL Eppendorf tube. […] The entire 1020 μL was then transferred to a clear fluorescence cuvette. […]"}, "SapB [2]": {"target": "T2, SapB (Homo sapiens, UniProt P07602)", "T2 construct": "made in house; host or cells: E. coli", "T2 sequence (P07602 195-273 limits assumed)": "T1 sequence (P07602 195-273 limits assumed)", "experiment": "Fluorescence quenching titration of SapB with ligand (double logarithmic Stern-Volmer analysis)", "format": "binding", "settings": "wild type SapB", "description": "A2E and SapB were prepared and purified according to literature reports. To determine the A2E/protein binding stoichiometry, a fluorescence titration was carried out by incrementally adding small amounts of A2E to a solution of SapB (FIG. 2). […] A double logarithmic plot of\nFluorescence quenching measurements were performed on a Varian Cary Eclipse fluorimeter equipped with a QNW Peltier temperature controller. […] The fluorescence quenching data were analyzed using OriginLab software version 8.\nThe interaction of SapB (prepared as described above) with a variety of ligands was followed by monitoring the quenching of the fluorescence intensities of the protein's tyrosine residues upon binding (FIG. 12 Panels a-f).\nFor each ligand tested 40 μM SapB in 50 mM phosphate buffer at pH 5.5 was titrated with ligand and quenching was monitored at the fluorescence maxima at 330 nm. […] All of the fluorescence data were analyzed by a double logarithmic Stern-Volmer plot, shown for all ligands, using the emission maxima to determine binding affinity, presented in Table 3, and using the following equation\nMaterials and Methods—Saposin B (SapB) was prepared and purified as described above. […] Fluorescence Spectroscopy. Fluorescence quenching measurements were performed on a Varian Cary Eclipse fluorimeter equipped with a QNW Peltier temperature controller. […]"}, "SapB [3]": {"target": "T2, SapB", "experiment": "Temperature dependent fluorescence binding assay, SapB with ATO", "settings": "from lnKeq vs. 1/T", "description": "(§1) Isothermal titration calorimetry has shown that [SapB-ATO]complex formation has a larger enthalpic contribution than [SapB-CQ]complex and [SapB-CoQ10]complex. Thus, the shift in binding affinity between [SapB-ATO]complex and [[…]-ATO]complex binding may be due to a shift in the thermodynamics of binding. In order to test this, temperature dependent fluorescence studies were performed with […] and ATO, as well as with SapB and ATO. Fluorescence titration experiments were carried out at five different temperatures for each of the […]-ATO and SapB-ATO experiments (FIG. 14). At each temperature, protein was prepared in phosphate buffer solution and ATO was then added via titration. The quenching of SapB or […] fluorescence was monitored at 330 nm and the KA was calculated via double logarithmic Stern-Volmer analysis. The best-fit plot of InKeq vs. 1/T, where was used to calculate the standard enthalpy, entropy, and Gibb's Free energy of binding for the formation of [[…]-ATO]complex and Materials and Methods-Saposin B (SapB) was prepared and purified as described above. Briefly, SapB solutions in this study were prepared in 50 mM phosphate buffer, pH 5.5. […] Ligand solutions were prepared in 100% dimethylformamide (DMF) to a concentration of 2 mM, with the exception of hydoxychloroquine (HCQ), which was prepared in 50 mM phosphate buffer, pH 5.5. […] Fluorescence Spectroscopy. Fluorescence quenching measurements were performed on a Varian Cary Eclipse fluorimeter equipped with a QNW Peltier temperature controller. The binding experiments were conducted at 25.00±0.01° C. in 50 mM phosphate buffer, pH 5.5, using 278 nm excitation wavelength for SapB emission spectra at 330 nm (FIG. 1a-f) with excitation and emission monochromators bandwidth of 5 nm each. […] The fluorescence quenching data were analyzed using OriginLab software version 8."}, "SapB mutant E69A": {"target": "T3, SapB mutant E69A (Homo sapiens, UniProt P07602, E263A)", "T3 construct": "is a product of the post-translational cleavage of prosaposin, along with SapA, SapC, and SapD", "T3 sequence (P07602 195-273 E263A)": "T1 sequence (P07602 195-273 limits assumed) with E69A", "experiment": "Fluorescence binding assay (Stern-Volmer and temperature dependent), E69A with ATO", "description": "as §1, with “The deviation observed for [SapB-ATO]complex from the trend warranted further investigation. In order to examine this deviation, a previously described SapB mutant […] (denoted as […] from here on) was used. Fluorescence studies were performed with […] and ATO as described herein for wild type SapB. […] Isothermal” for “Isothermal”"}}, "note": "Substitutions are numbered along the chain they refer to. “Also recorded” adds a separate entry of the source. For at least one compound, name, drawing or mass did not settle the structure."}
{"smiles": "O=C1C(O)=C([C@H]2CC[C@H](c3ccc(Cl)cc3)CC2)C(=O)c2ccccc21", "note": "[Atovaquone, atovaquone]", "values": [{"measurement": "ATO binding on titration into pre-formed [SapB-A2E]complex", "setting": "[1]; 40 μM SapB and 20 μM A2E pre-complexed", "value": "clear ATO binding"}, {"measurement": "A2E binding on titration into SapB pre-complexed with the ligand", "setting": "[1]; A2E fluorescence at 602 nm, excitation 444 nm, listed as ATO", "value": "no A2E binding; also recorded: able to block A2E binding"}, {"measurement": "KA for [SapB-ATO]complex, Stern-Volmer analysis", "setting": "SapB [2]", "value": "~10^7"}, {"measurement": "ΔG°, SapB-ATO binding", "setting": "SapB [3]", "value": "-46.96 ± 1.170", "unit": "kJ/mol"}, {"measurement": "ΔS°, SapB-ATO binding", "setting": "SapB [3]", "value": "157.51 ± 3.926", "unit": "J K^−1 mol^−1"}, {"measurement": "ΔH°, SapB-ATO binding", "setting": "SapB [3]; five temperatures, listed as ATO", "value": "7.249±1.163", "unit": "kJ K^−1 mol^−1"}, {"measurement": "KA for [E69A-ATO]complex, Stern-Volmer analysis", "setting": "SapB mutant E69A; SapB mutant E69A", "value": "~10^4"}, {"measurement": "ΔG°, E69A-ATO binding", "setting": "SapB mutant E69A; from lnKeq vs. 1/T", "value": "82.33 ± 8.794", "unit": "kJ/mol"}, {"measurement": "ΔS°, E69A-ATO binding", "setting": "SapB mutant E69A; from lnKeq vs. 1/T", "value": "−276.1 ± 29.52", "unit": "J K^−1 mol^−1"}, {"measurement": "ΔH°, E69A-ATO binding", "setting": "SapB mutant E69A; from lnKeq vs. 1/T, five temperatures, listed as ATO", "value": "−103.5±8.966", "unit": "kJ K^−1 mol^−1"}]}
